Laboratory results from patent publication US5092885A, “Peptides with laminin activity” (The Government of the United States of America as …, priority 1988, dated 1992).
Entries after “also recorded” stand apart in the source; their conditions may differ. Not every detail of the peptide structures is certain; ends, links or a residue may be inferred. Where a SMILES comes first, the peptide text is derived from it.

How the values were obtained:
[1] = tested on: HT-1080 cells; experiment: HT-1080 cell adhesion to peptide-coated dishes; type: cell-based, human; conditions: for promotion of HT-1080 cell adhesion (in words): peptide coated onto dish, 1.5 hours
[2] = tested on: HT-1080 cell adhesion to laminin; experiment: Competition assay: inhibition of HT-1080 cell adhesion to laminin; type: cell-based, human; conditions: HT-1080 cells, laminin-coated dishes
[3] = tested on: HT-1080 cell adhesion to fibronectin; experiment: Competition assay: inhibition of HT-1080 cell adhesion to fibronectin; type: cell-based, human; conditions: HT-1080 cells, any dose tested
[4] = tested on: B16F10 melanoma cells; experiment: B16F10 melanoma cell migration (chemotaxis), Boyden chamber; type: cell-based; conditions: peptide in lower well, five hours
[5] = tested on: laminin-mediated cell migration of B16F10 melanoma cells; experiment: Inhibition of laminin-mediated B16F10 cell migration; type: cell-based; conditions: peptide with cells in upper chamber, laminin 20 micrograms/ml, five hours
[6] = tested on: fibronectin-mediated cell migration of B16F10 melanoma cells; experiment: Inhibition of fibronectin-mediated B16F10 cell migration; type: cell-based; conditions: peptide with cells in upper chamber, fibronectin 20 micrograms/ml, five hours
[7] = tested on: B16F10 cells; experiment: In vivo pulmonary tumor assay; design: species or system C57BL/6 female mice; conditions: for number of colonies/lung: counted after three weeks
[8] = tested on: Human skin endothelial cells; experiment: Capillary-like structure formation by endothelial cells on matrigel; type: cell-based; conditions: peptide added to the media or included within the matrigel
[9] = 50 μg/mouse peptide injected with B16F10 cells into tail vein
[10] = 100 μg/mouse peptide injected with B16F10 cells into tail vein
[11] = 500 μg/mouse peptide injected with B16F10 cells into tail vein

| Compound | cell adhesion activity relative to YIGSR-NH2 ([1]; peptide coated directly onto the petri dish) [%] | promotion of HT-1080 cell adhesion (in words) [1] | amount of peptide required to block adhesion to laminin by 50%, relative to YIGSR-NH2 [2] | blocking of laminin-mediated cell adhesion (in words) [2] | effect on cell adhesion to fibronectin substrates (in words) [3] | chemotactic activity / stimulation of cell migration (in words) [4] | blocking of laminin-mediated cell migration (in words) [5] | inhibition of fibronectin-mediated cell migration (in words) [6] | number of colonies/lung [7, 9] [colonies/lung] | number of colonies/lung [7, 10] [colonies/lung] | number of colonies/lung [7, 11] [colonies/lung] | inhibition of lung colony formation ([7]; 50 micrograms per mouse) [%] | inhibition of lung colony formation ([7]; 100 micrograms per mouse) [%] | blocking melanoma cell colonization of the lungs (in words) ([7]; B16F10 cells, mice) | formation of capillary-like structures by endothelial cells (in words) [8] |
| --- | --- | --- | --- | --- | --- | --- | --- | --- | --- | --- | --- | --- | --- | --- | --- |
| N=C(N)NCCC[C@H](NC(=O)CNC(=O)[C@H](CO)NC(=O)[C@H](CC(=O)O)NC(=O)[C@@H]1CCCN1)C(N)=O [PDSGR-NH2, proline-aspartine-serine-glycine-arginine] (H-PDSGR-NH2) | 50 | active in promoting cell adhesion; also recorded: considerable cell adhesion activity | more than twice as much | blocks laminin-mediated cell adhesion | without affecting fibronectin-mediated activities; also recorded: Neither peptide at any dose tested had any effect | active in promoting cell adhesion and migration; also recorded: dose-dependent stimulation of cell movement | blocks laminin-mediated cell adhesion and migration; also recorded: blocked laminin-mediated cell migration in a dose-dependent manner | without affecting fibronectin-mediated activities | 65 | 60 | 24 | 68 | 70 | reducing the number of melanoma lung colonies in vivo | – |
| N=C(N)NCCC[C@H](NC(=O)CNC(=O)[C@H](CO)NC(=O)[C@H](CC(=O)O)NC(=O)[C@@H]1CCCN1)C(=O)O [PDSGR] (H-PDSGR-OH) | – | found to serve for cell attachment | – | – | – | – | – | – | – | – | – | – | – | – | – |
| CC[C@H](C)[C@H](NC(=O)[C@@H](N)Cc1ccc(O)cc1)C(=O)NCC(=O)N[C@@H](CO)C(=O)N[C@@H](CCCNC(=N)N)C(N)=O [YIGSR-NH2] (H-YIGSR-NH2) | – | – | – | – | Neither peptide at any dose tested had any effect | – | blocked laminin-mediated cell migration in a dose-dependent manner | – | 70 | 45 | 5 | – | – | – | inhibited the endothelial cells from forming capillary-like structures |
